Laboratory results reported in PubChem BioAssay AID603 (National Center for Advancing Translational Sciences (NCATS), 2007).
The list shows a part of the results, in another mix than the full data. The source made the active and inactive calls. Calls follow the shape of the dose curve; as a rule, active = well fitted curve in the direction sought with a large enough effect; inconclusive = small, poorly fitted or top-dose-only effect; inactive = flat fitted curve, though single readings scatter.
Potency is read from the fitted curve at half-maximal effect.

These compounds were tested on DNA polymerase III holoenzyme (E. coli) (assay: qHTS Assay for Inhibitors of DNA Polymerase III Holoenzyme System). Conditions: reconstituted DNA polymerase III holoenzyme replication, biochemical.
Experimental: NIH Molecular Libraries Screening Centers Network [MLSCN]
NIH Chemical Genomics Center [NCGC]
Assay Provider: Charles McHenry, University of Colorado
E. coli DNA polymerase III holoenzyme complex was assayed for DNA production by fluorescent detection of the double-stranded DNA product with PicoGreen dye. The holoenzyme complex was reconstituted from the following purified protein components: DNA Polymerase III, beta subunit processivity factor, SSB single-stranded DNA binding protein, and Primase. Single-stranded, circular M13Gori was used as a substrate with dNTPs and NTPs also supplied to the substrate reagent. Compounds from the NCGC collection were incubated with the holoenzyme mixture for 15 min at room temperature to allow binding to occur, and then the reaction was started by the addition of substrate. […] Reaction progress was measured in a ViewLux CCD imager in fluorescence intensity mode by using 480 nm excitation and 540 nm emission filter set. […]
Three uL of holoenzyme mixture were dispensed to 1536-well Greiner black solid bottom plates. […] After room temperature incubation for 35 minutes, 1 uL of PicoGreen solution was added to each well and the plates were read 480 nm excitation and 540 nm emission using ViewLux (Perkin-Elmer) High-throughput CCD imager and fluorescence protocol settings. […]
With `COc1ccc2c(c1)c1c(C)c3cnccc3c(C)c1n2CCCN` the Potency was active: 794 nM.
